Data taken from PubChem BioAssay AID2685 (National Center for Advancing Translational Sciences (NCATS), 2010).
The list shows a part of the results. The main result of the screen is listed elsewhere. These columns were measured beside it and carry no call. The list favours compounds with an active or inconclusive main result. Potencies come from curve fits of mixed quality, noted in brackets.

Assay: qHTS Assay for Lipid Storage Modulators in Drosophila S3 Cells;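 for cell number change: cells counted by Cell Tracker Red CMTPX staining in the red channel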
Conditions: BODIPY lipid droplet fluorescence, 18-24 h; for cell number change: measured here: cell count max response, cells fed with added oleic acid
Procedure, shortened: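 Drosophila S3 cells got compounds at several concentrations plus oleic acid (400 uM solution). Laser-scanning cytometry with 488 nm excitation read lipid droplets at 500-530 nm and cells at 575-640 nm. Percent activity was relative to 20 uM Triacsin C.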

[1] = measured here: cell number channel AC50, cells fed with added oleic acid
[2] = measured here: lipid fluorescence (Fed channel) AC50, cells fed with added oleic acid

| Structure (SMILES) | cell number change | AC50 [1] | AC50 [2] |
| --- | --- | --- | --- |
| O=C(CSc1nc(-c2ccccc2)c(-c2ccccc2)[nH]1)NCC1CCCO1 (stereo not given) | 27.7% |  |  |
| CC(C)Cc1cc(C(=O)Nc2cc(Br)ccc2O)no1 | -35.8% | 18.4 µM [falling, single point] | 7.31 µM [falling, partial curve] |
| COc1ccc2c(-c3ccccc3)cc(SCC(=O)NC(N)=O)nc2c1 |  | 6.51 µM [rising, partial curve, poor fit] |  |
| C[C@H](NC(=O)c1ccco1)C(=O)NC1CCCCCC1 | 14.7% | 0.651 µM [falling, single point] |  |
| Cc1cccc(C(=O)OCCN2CCOCC2)c1 | 28.4% |  | 0.731 µM [falling, single point] |
| O=C(CCn1nnc2ccccc2c1=O)NCC1CCC(C(=O)O)CC1 (stereo not given) | 4.42% |  |  |
| Cc1ccc(S(=O)(=O)N(C)C)cc1NC(=S)Nc1ccc2[nH]c(=O)[nH]c2c1 | 13.3% |  |  |
| Cc1cc(/C=C(\C#N)c2nnc(N3CCOCC3)n2-c2ccccc2)c(C)n1-c1ccccc1 | 67.3% | 5.17 µM [rising, full curve] | 6.51 µM [falling, partial curve] |
| COc1ccc(NC(=O)c2nc(-n3nc(C)cc3C)ccc2Cl)cc1Cl | 20% | 0.517 µM [rising, partial curve, poor fit] | 0.461 µM [rising, full curve] |
| COc1cc(/C=N/NC(=O)c2ccccc2O)ccc1OCC(=O)Nc1ccccc1 | 53.7% | 29.1 µM [rising, single point] | 0.326 µM [falling, full curve] |
| O=C1OC(NCc2cccnc2)(c2ccc(Cl)cc2)c2ccccc21 (stereo not given) | 17.7% |  | 29.1 µM [rising, single point] |
| COc1ccc(/C=C/C(=O)OCc2csc(-c3ccccc3)n2)cc1OC | 5.12% | 0.731 µM [falling, single point] |  |
| CC(=O)N1CCc2cc(Br)cc(S(=O)(=O)NCCCN(C)Cc3ccccc3)c21 | -7.69% |  |  |
| CS(=O)(=O)c1ccc(-c2nnc(NC(=O)C3=COCCO3)o2)cc1 | -13.6% |  | 6.51 µM [falling, single point] |
| CCOc1ccc2c(c1)sc(N)[n+]2Cc1cc(C)cc2cccnc12 | -24.4% |  | 16.4 µM [falling, single point] |
| COc1ccc(C(C(=O)NC(C)(C)C)N(CCc2ccccc2)C(=O)CCC(=O)Nc2cc(C)on2)cc1 (stereo not given) | -11.9% | 0.326 µM [falling, full curve, poor fit] |  |
| COc1cc2[nH]c(=S)n(C3CC3)c(=O)c2cc1OC | 9.65% |  | 2.59 µM [rising, single point] |
| Cc1cc(C(=O)NNC(=S)NC(=O)/C=C/c2ccccc2Cl)n[nH]1 | -37.9% | 23.1 µM [falling, single point] | 20.6 µM [falling, partial curve] |
| COCc1nnc(NS(=O)(=O)c2ccc([N+](=O)[O-])cc2)s1 |  |  | 3.26 µM [falling, full curve] |
| O=C(NCc1nc(-c2ccc(C(F)(F)F)cc2)no1)Nc1cc(Cl)cc(Cl)c1 | -54.8% | 29.1 µM [falling, single point] | 29.1 µM [falling, single point] |

| Structure (SMILES) | cell number change | AC50 [1] | AC50 [2] |
| --- | --- | --- | --- |
| C=CCn1c(=N)n(CC(=O)c2ccc(OC)cc2)c2ccccc21 |  |  | 8.2 µM [rising, partial curve] |
| O=c1nc(N/N=C/c2ccco2)cn[nH]1 |  | 0.103 µM [rising, single point] |  |
| COC(=O)c1ccc(NC(=O)CN2CCC(NC(=O)c3ccco3)CC2)cc1 | 21.5% | 6.51 µM [rising, single point] |  |
| Cc1ccc(S(=O)(=O)N(C)c2cc(S(N)(=O)=O)c(C)cc2C)cc1 | 29.4% |  |  |
| O=C(N/N=C/c1c(Cl)[nH]c2ccccc12)c1ccc2c(c1)OCCO2 | -26.3% |  | 5.8 µM [falling, partial curve, poor fit] |
| COc1cc(OC)cc(C(=O)N[C@H](C(=O)Nc2nnc(C3CC3)s2)C(C)C)c1 |  | 0.146 µM [falling, full curve, poor fit] |  |
| C=CCN(c1ccccc1)S(=O)(=O)c1cccc(C(=O)Nc2ncccc2O)c1 |  | 0.411 µM [rising, partial curve] |  |
| CC(=O)c1c(O)c2ccccc2n(Cc2ccccc2)c1=O | 19.4% |  |  |
| CCOC(=O)C(C(=O)OCC)N(C#N)c1nc(OC)nc(N(C)C)n1 | 46.5% | 11.6 µM [rising, partial curve, poor fit] |  |
| C=CCNc1nc(C(=O)OCC(=O)Nc2ccccc2C(F)(F)F)cs1 | 4.01% |  | 0.731 µM [falling, single point] |
| Cn1c2ccccc2c2cc(/C=N/NC(=O)c3cc(O)ccc3O)ccc21 | -15.9% |  |  |
| COc1ccc(-c2noc(CNC(=O)c3ccoc3C)n2)cc1 | 13.8% |  |  |
| CNCc1ccccc1OCc1ccc(F)cc1 | -0.615% | 3.66 µM [falling, single point] | 2.59 µM [falling, single point] |
| Cn1c(SCC(=O)N2CCCCCC2)nnc1-c1ccco1 | -3.95% |  |  |
| CCOc1ccc(C(C(=O)NC2CCCC2)N(C(=O)CNC(=O)c2ccco2)c2cccnc2)cc1 (stereo not given) | 6.58% |  | 25.1 µM [falling, single point] |
| CCN(CC(=O)Nc1ccc(NC(C)=O)cc1)C(=O)Cc1ccccc1F | 5.26% |  |  |
| COC(=O)CCCC(=O)NC(C)c1cnn(-c2ccccc2C)c1C (stereo not given) | -23.8% |  | 18.4 µM [falling, partial curve] |
| Cc1ccc(C(=O)NC(C(=O)Nc2ccccc2)c2ccccc2)cc1 (stereo not given) |  | 0.517 µM [rising, full curve, poor fit] |  |
| CCOC(=O)c1cc(NC(=O)c2cccnc2)cc(C(=O)OCC)c1 |  | 2.59 µM [rising, partial curve] | 2.59 µM [rising, partial curve] |
| CS(=O)(=O)c1nc(-c2cccs2)cc(C(F)(F)F)n1 | -86.6% | 20.6 µM [falling, partial curve] |  |

Of the compounds above, two have a cyano group.

| Structure (SMILES) | cell number change | AC50 [1] | AC50 [2] |
| --- | --- | --- | --- |
| Cc1cc(/C=C(\C#N)c2nnc(N3CCOCC3)n2-c2ccccc2)c(C)n1-c1ccccc1 | 67.3% | 5.17 µM [rising, full curve] | 6.51 µM [falling, partial curve] |
| CCOC(=O)C(C(=O)OCC)N(C#N)c1nc(OC)nc(N(C)C)n1 | 46.5% | 11.6 µM [rising, partial curve, poor fit] |  |
